Measured values taken from patent US9155795B2 (Anchor Therapeutics, Inc., priority 2010, dated 2015).

Experiment: general procedure: Fmoc solid-phase peptide synthesis; Rink amide resin; HBTU/HOBt
Details: whole synthesis, scale 0.1 mmol

Substance | isolated mass [mg]
C28H45O2— MGYQKKLRSMTDKYRL-amide | 1.8
CH3(CH2)15SO2— GGYQKKLRSATDKYRL-amide | 2.9
CH3(CH2)15SO2— GGYQKKLRpHTDKYRL-amide | 3.5
